Results reported in PubChem BioAssay AID248 (DTP/NCI, 2004).
The list does not hold the whole screen: it gathers tests that were run many times, whatever their T/C, doses with no T/C, and many T/C values between a quarter and a half above the control. Further doses and runs are listed elsewhere. T/C is the treated group as % of the vehicle group. Some doses have a count of surviving animals in place of a T/C: the source files T/C as zero there, which appears to mark a toxic dose or a test without result, not a measured value. Some survivor counts are full or nearly so, which does not show that the dose was tolerated: survival well below the control is almost never listed, so the zero probably covers shortened survival too. Counts of survivors are from the toxicity check (mostly the fifth day) where no day follows; animals may have died later. Schedule codes are those of the source, read here as Q, the interval in days (D) or hours (H), X, the number of doses. Some entries hold several experiments; the results are listed from low to high. For survival time, this PubChem deposit counts one and a half times the control or more as active, and values a quarter to a half above the control carry no call in these data; other NCI protocols may use other cut-offs. Marks such as (2×) count equal records among those shown. Some T/C values carry the count of animals alive at the toxicity check (mostly the fifth day); without a count, all were alive then.

Tested on: L1210 leukemia ip in BDF1 mice, survival T/C
Test: NCI In Vivo Anticancer Drug Screen. Data for tumor model L1210 Leukemia (intraperitoneal) in B6D2F1 (BDF1) mice
Details: T/C endpoint: mean survival time, higher T/C = longer survival
[1] = dose: 12.5 mg/kg/injection, schedule: Q01DX009 (ip), vehicle: saline
[2] = dose: 400.0 mg/kg/injection, schedule: Q01DX009 (ip), vehicle: Klucel (hydroxypropylcellulose) (HPC)
[3] = dose: 40.0 mg/kg/injection, schedule: Q01DX001 (ip), vehicle: saline
[4] = dose: 150.0 mg/kg/injection, schedule: Q01DX001 (ip), vehicle: saline
[5] = dose: 300.0 mg/kg/injection, schedule: Q01DX001 (ip), vehicle: saline
[6] = dose: 100.0 mg/kg/injection, schedule: Q01DX001 (ip), vehicle: saline
[7] = dose: 200.0 mg/kg/injection, schedule: Q01DX001 (ip), vehicle: saline
[8] = dose: 400.0 mg/kg/injection, schedule: Q01DX001 (ip), vehicle: saline
[9] = dose: 400.0 mg/kg/injection, schedule: Q04DX003 (ip), vehicle: Klucel (hydroxypropylcellulose) (HPC)
[10] = dose: 25.0 mg/kg/injection, schedule: Q01DX009 (ip), vehicle: other
[11] = dose: 1.56 mg/kg/injection, schedule: Q04DX002 (ip), vehicle: other

For `C(=N\N(CCCCN(/N=C/c1ccccc1)c1ccccc1)c1ccccc1)/c1ccccc1`, the survivor count (dose: 100.0 mg/kg/injection, schedule: Q01DX009 (ip), vehicle: gum acacia) was 6 of 6.
`C=C1C2CCC3C4(C)CC(OC5OC(CO)C(OS(=O)(=O)O)C(OS(=O)(=O)O)C5OC(=O)CCCC)CC(C(=O)O)C4CCC3(C2)C1O` (configuration not stated) was tested, and the survivor count [1] was 5 of 6 and the survivor count (dose: 400.0 mg/kg/injection, schedule: Q04DX003 (ip), vehicle: saline with Tween-80) was 3 of 6.
For `CNCC(C)CNC`, the survivor count (dose: 200.0 mg/kg/injection, schedule: Q01DX009 (ip), vehicle: saline) was 2 of 6, the survivor count (dose: 200.0 mg/kg/injection, schedule: Q04DX003 (ip), vehicle: saline) was 5 of 6 and the survivor count (dose: 400.0 mg/kg/injection, schedule: Q04DX003 (ip), vehicle: saline) was 1 of 6.
For `COc1ccc(O)c(C(=O)c2cccc(OC)c2C#N)c1`, the survivor count (dose: 200.0 mg/kg/injection, schedule: Q04DX003 (ip), vehicle: carboxymethylcellulose (CMC)) was 4 of 6 and the survivor count (dose: 400.0 mg/kg/injection, schedule: Q04DX003 (ip), vehicle: carboxymethylcellulose (CMC)) was 6 of 6.
In the case of `Cc1cc(Cl)cc2sc(=S)[nH]c12`, the T/C [2] is reported as 134 % of control [2 of 3 alive].
In the case of `OC(c1ccccc1)c1ccccc1` (tested in a mixture with another compound), the survivor count [3] is reported as 3 of 6, the survivor count (dose: 75.0 mg/kg/injection, schedule: Q01DX001 (ip), vehicle: saline) is reported as 2 of 6 and the survivor count [4] is reported as 0 of 6. The survivor count [5] was 0 of 6.
With `CCN(CCO)c1ccc(N=O)cc1` the survivor count (dose: 20.0 mg/kg/injection, schedule: Q01DX001 (ip), vehicle: saline) was 2 of 4, the survivor count [3] was 2 of 4 and the survivor count (dose: 80.0 mg/kg/injection, schedule: Q01DX001 (ip), vehicle: saline) was 0 of 4. The survivor count [6] was 2 of 4, the survivor count [7] was 0 of 4 and the survivor count [8] was 0 of 4.
`CCCCC[n+]1cccc(C#N)c1` was tested, and the survivor count [5] was 2 of 6.
`C/C(=N/OC(=O)N(C)C)c1cccc(Cl)c1` was tested, and the T/C [6] was 139 % of control [5 of 6 alive].
With `C[N+](C)(C)CCC[N+]1(C)CCC2(CCCC(C(F)(F)F)C2)CC1` (configuration not stated) the survivor count [8] was 0 of 4.
In the case of `[Br][Sn]([Br])([CH]1CCCCC1)[CH]1CCCCC1`, the survivor count (dose: 37.5 mg/kg/injection, schedule: Q01DX001 (ip), vehicle: other) is reported as 0 of 6, the survivor count (dose: 75.0 mg/kg/injection, schedule: Q01DX001 (ip), vehicle: other) is reported as 0 of 6 and the survivor count (dose: 150.0 mg/kg/injection, schedule: Q01DX001 (ip), vehicle: other) is reported as 0 of 6. For the same compound, the survivor count (dose: 300.0 mg/kg/injection, schedule: Q01DX001 (ip), vehicle: other) was 0 of 6.
For `CCOC(=O)C(C(=O)O)C(=O)CCO` (configuration not stated), the survivor count [8] was 3 of 3.
`CCOP(=O)(/C=C/NC1CCCCC1)OCC` was tested, and the survivor count [8] was 3 of 6.
With `O=C(Oc1ccc([N+](=O)[O-])cc1)c1cccc(S(=O)(=O)F)c1` the survivor count (dose: 100.0 mg/kg/injection, schedule: Q04DX003 (ip), vehicle: carboxymethylcellulose (CMC)) was 1 of 1.
In the case of `C=CCOC(=O)C(F)(F)F`, the survivor count (dose: 400.0 mg/kg/injection, schedule: Q04DX002 (ip), vehicle: saline) is reported as 0 of 3.
`COc1ccc(C(=O)C(C)CN2CCCCC2)cc1` (configuration not stated) was tested, and the survivor count [8] was 0 of 4.
In the case of `CCOC(=O)C(Cc1ccc(O)c(N(CCO)CCO)c1)N1C(=O)c2ccccc2C1=O` (configuration not stated), the survivor count [8] is reported as 2 of 4.
For `CCOC(=O)C(CCN1CCCCC1)c1cccc2ccccc12` (configuration not stated), the survivor count [9] was 0 of 6.
With `CC(O)C#CC#CC(C)O` (configuration not stated) the survivor count (dose: 75.0 mg/kg/injection, schedule: Q01DX009 (ip), vehicle: saline) was 2 of 3, the survivor count (dose: 115.0 mg/kg/injection, schedule: Q01DX009 (ip), vehicle: saline) was 0 of 3 and the survivor count (dose: 170.0 mg/kg/injection, schedule: Q01DX009 (ip), vehicle: saline) was 0 of 3.
For `Nc1ccc(Nc2ccccc2)c(N)c1`, the survivor count (dose: 150.0 mg/kg/injection, schedule: Q01DX009 (ip), vehicle: saline) was 1 of 6 and the survivor count (dose: 300.0 mg/kg/injection, schedule: Q04DX003 (ip), vehicle: saline) was 3 of 6.
With `CN1CC(CO)=CC2c3cccc4[nH]cc(c34)CC21` (configuration not stated) the survivor count [7] was 1 of 4 and the survivor count [8] was 1 of 4.
`CCOc1ccc2c(ccc(/C=C\c3ccc(O)c4ccccc34)[n+]2C)c1` was tested, and the survivor count [5] was 2 of 6.
`O=[N+]([O-])c1ccc(S(=O)(=O)O)c([N+](=O)[O-])c1.[Ag]` was tested, and the survivor count [10] was 5 of 6, the survivor count (dose: 50.0 mg/kg/injection, schedule: Q01DX009 (ip), vehicle: other) was 0 of 6 and the survivor count (dose: 100.0 mg/kg/injection, schedule: Q04DX003 (ip), vehicle: other) was 1 of 6. The survivor count (dose: 200.0 mg/kg/injection, schedule: Q04DX003 (ip), vehicle: other) was 0 of 6 and the survivor count (dose: 400.0 mg/kg/injection, schedule: Q04DX003 (ip), vehicle: other) was 0 of 6.
In the case of `CC1(N=C(N)CSSCC(N)=NC2(C)CCC(C(C)(C)C)CC2)CCC(C(C)(C)C)CC1` (configuration not stated), the T/C (dose: 1.56 mg/kg/injection, schedule: Q01DX009 (ip), vehicle: carboxymethylcellulose (CMC)) is reported as 126 % of control [4 of 6 alive], the T/C [11] is reported as 101 % of control (2×) and the survivor count [11] is reported as 1 of 3 and 2 of 6. The T/C (dose: 3.12 mg/kg/injection, schedule: Q04DX002 (ip), vehicle: other) was 90 and 93 % of control (3×), the survivor count (dose: 6.25 mg/kg/injection, schedule: Q01DX009 (ip), vehicle: other) was 3 of 6 and the T/C (dose: 6.25 mg/kg/injection, schedule: Q04DX002 (ip), vehicle: other) was 90, 93, 98, 118, 128 % of control. For the same compound, the survivor count (dose: 8.0 mg/kg/injection, schedule: Q01DX001 (ip), vehicle: other) was 0 of 6, the survivor count (dose: 12.5 mg/kg/injection, schedule: Q01DX009 (ip), vehicle: other) was 3 of 6 and the survivor count (dose: 12.5 mg/kg/injection, schedule: Q04DX002 (ip), vehicle: other) was 1 of 3. The survivor count (dose: 16.0 mg/kg/injection, schedule: Q01DX001 (ip), vehicle: other) was 0 of 6, the survivor count (dose: 20.0 mg/kg/injection, schedule: Q04DX003 (ip), vehicle: other) was 0 of 6 and the survivor count [10] was 0 of 3 and 0 of 6. The survivor count (dose: 25.0 mg/kg/injection, schedule: Q04DX002 (ip), vehicle: other) was 0 of 3, the survivor count (dose: 32.0 mg/kg/injection, schedule: Q01DX001 (ip), vehicle: other) was 0 of 6 and the survivor count (dose: 40.0 mg/kg/injection, schedule: Q04DX003 (ip), vehicle: other) was 0 of 6. For the same compound, the survivor count (dose: 50.0 mg/kg/injection, schedule: Q04DX002 (ip), vehicle: carboxymethylcellulose (CMC)) was 0 of 3 and 3 of 6, the survivor count (dose: 100.0 mg/kg/injection, schedule: Q04DX002 (ip), vehicle: carboxymethylcellulose (CMC)) was 0 of 3 and 0 of 6 and the survivor count (dose: 200.0 mg/kg/injection, schedule: Q04DX002 (ip), vehicle: carboxymethylcellulose (CMC)) was 0 of 3 and 1 of 6. For the same compound, the survivor count (dose: 400.0 mg/kg/injection, schedule: Q04DX002 (ip), vehicle: carboxymethylcellulose (CMC)) was 0 of 3 and 0 of 6.
In the case of `CCN(C(=O)Nc1ccc(SC)cc1)c1ccccc1`, the survivor count [2] is reported as 5 of 6.
In the case of `CCCCCCCCCCCCCCCCCCSCCOCCSCCCCCCCCCCCCCCCCCC`, the survivor count (dose: 200.0 mg/kg/injection, schedule: Q01DX001 (ip), vehicle: Klucel (hydroxypropylcellulose) (HPC)) is reported as 6 of 6.
For `Cc1nc(N=C(N)N)nc2ccc(Cl)cc12`, the survivor count [4] was 1 of 6 and the survivor count [5] was 0 of 6.
For `O=C(O)c1cccc2c1-c1ccc(Cl)cc1C2`, the survivor count [9] was 0 of 6.
In the case of `Cc1cc[n+](Cc2ccccc2Cl)c(C)c1`, the T/C [1] is reported as 141 % of control, the survivor count (dose: 25.0 mg/kg/injection, schedule: Q04DX003 (ip), vehicle: saline) is reported as 5 of 6 and the survivor count (dose: 50.0 mg/kg/injection, schedule: Q01DX001 (ip), vehicle: saline) is reported as 0 of 6. The survivor count [6] was 0 of 6 and the survivor count [7] was 0 of 6.
In the case of `CNC1CC2CCC(C2)C1(O)c1ccccc1` (configuration not stated), the survivor count [7] is reported as 0 of 6 and the survivor count [8] is reported as 0 of 6.
